No constants are given. Whether binding was seen depends on the method and setting. Some results given as binding are weak or reduced against the parent protein; the word gives no strength.
Biological target: recombinant form of the human P-selectin ectodomain (spanning the 42-771 sequence of the preprotein) (human) (UniProt P16109)
Assay: ELISA; solid phase binding assay: 96-well Maxisorp plates coated with the indicated amounts of P-selectin ectodomain or C1q, incubated with the A48 or D48 PTX3 variant (both at 3 nM); bound protein revealed with an anti-human PTX3 polyclonal antibody, OD 450 nm; both purified

Sequences of proteins named here, by UniProt entry; tags and fusion partners are left off. A change or cut given only in a name is not applied to a line headed by its entry. Residues count along the entry.
UniProt P16109, residues 42-771: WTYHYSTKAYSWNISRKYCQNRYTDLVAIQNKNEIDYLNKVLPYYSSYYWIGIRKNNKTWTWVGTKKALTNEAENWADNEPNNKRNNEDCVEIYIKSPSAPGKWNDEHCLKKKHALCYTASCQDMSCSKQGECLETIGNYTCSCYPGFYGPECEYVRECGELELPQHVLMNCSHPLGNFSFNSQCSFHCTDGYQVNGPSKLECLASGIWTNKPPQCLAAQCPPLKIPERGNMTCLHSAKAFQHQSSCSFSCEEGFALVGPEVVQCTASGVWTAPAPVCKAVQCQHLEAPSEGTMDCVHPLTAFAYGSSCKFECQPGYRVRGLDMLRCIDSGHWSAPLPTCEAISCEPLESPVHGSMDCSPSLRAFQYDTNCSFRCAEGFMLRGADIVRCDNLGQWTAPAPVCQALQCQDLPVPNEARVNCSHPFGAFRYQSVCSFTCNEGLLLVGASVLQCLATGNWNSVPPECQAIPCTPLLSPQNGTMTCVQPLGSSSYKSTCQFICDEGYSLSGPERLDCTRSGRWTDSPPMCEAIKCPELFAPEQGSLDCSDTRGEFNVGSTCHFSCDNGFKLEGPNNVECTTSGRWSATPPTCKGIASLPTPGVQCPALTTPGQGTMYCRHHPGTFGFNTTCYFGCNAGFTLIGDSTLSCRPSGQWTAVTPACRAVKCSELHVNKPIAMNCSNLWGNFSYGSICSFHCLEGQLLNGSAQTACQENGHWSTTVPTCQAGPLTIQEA
UniProt P26022, residues 18-381: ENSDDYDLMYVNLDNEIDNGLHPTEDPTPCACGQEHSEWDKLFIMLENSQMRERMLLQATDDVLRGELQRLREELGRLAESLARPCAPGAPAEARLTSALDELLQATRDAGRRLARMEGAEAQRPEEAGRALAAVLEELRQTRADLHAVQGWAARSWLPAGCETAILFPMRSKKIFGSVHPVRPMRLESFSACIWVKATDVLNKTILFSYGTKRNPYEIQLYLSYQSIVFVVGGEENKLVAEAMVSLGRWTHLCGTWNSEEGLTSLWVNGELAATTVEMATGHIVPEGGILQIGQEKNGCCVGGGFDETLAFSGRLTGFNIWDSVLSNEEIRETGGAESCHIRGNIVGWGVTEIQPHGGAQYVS

binding | Substance
binds | recombinant human PTX3, A48 allelic variant (Ala at position 48 of the preprotein; C allele of the +734A/C polymorphism rs3816527) (from UniProt P26022 18-381)
binds | recombinant human PTX3, D48 allelic variant (Asp at position 48 of the preprotein; A allele of the +734A/C polymorphism rs3816527) (from UniProt P26022 18-381)

Source: article PMC10266767
